The experiment in a line: qHTS Assay to Find Inhibitors of Chronic Active B-Cell Receptor Signaling. To be noted: ABC-DLBCL IkBa-CBG/CBR reporter, luminescence ratio (green luciferase fused to IkBa over red control in TMD8 lymphoma cells), 4 h. The essentials: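 Compounds up to 46 uM were incubated four hours with TMD8 cells whose green CBG68 luciferase is fused to IkappaBalpha; red CBR luminescence normalised the signal, and concentration-effect curves were fitted to fusion, red and ratio data.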
In general terms: qHTS replaces the single test concentration by a dilution series.

The mark [1] stands for this setting: measured here: CBR red luminescence, cell number.
Setting [2] is: measured here: IkBa-CBG green luminescence.

This note sets out measurements from PubChem BioAssay AID493014 (National Center for Advancing Translational Sciences (NCATS), 2011).

This is one part of the list. Further columns of the screen follow, without active or inactive calls. Most of these compounds were active or inconclusive in the main read-out, so they are no random draw. Potencies come from curve fits of mixed quality, noted in brackets.

In general, AC50 refers to the concentration at which the activity in the assay is half-maximal.

For `O=C(CN1CCc2cc3c(cc2C1)OCCCO3)Nc1ccccc1`, the AC50 under setting [1] was 11.2 µM [falling, partial curve].

In the case of `O=C(N[C@@H](Cc1ccccc1)C(=O)CCl)OCc1ccccc1`, the AC50 under setting [1] was 8.2 µM [falling, partial curve].

Turning to `CCOC(CNC(=O)c1cccn2c(=O)c3c(C)c(C)sc3nc12)OCC`, under setting [1], the half-maximal activity concentration (AC50) was 35.5 µM [falling, single point].

In the case of `Cc1ccc(S(=O)(=O)CCSc2nc(C)cc(C(F)(F)F)c2C#N)cc1`, the AC50 under setting [1] was 14.6 µM [falling, partial curve].

`O=C(Nc1cc(C(=O)N2CCN(c3ccccc3O)CC2)ccc1Cl)c1cccs1`: under setting [1], the AC50 was 29.1 µM [falling, single point].

For `Cc1[nH]nc2c1C(c1ccc(OC(=O)c3ccco3)cc1)C(C#N)=C(N)O2` (stereo not drawn), the AC50 under setting [1] is 11.2 µM [falling, partial curve, poor fit].

On to `O=C(c1cccc(S(=O)(=O)N2CCc3ccccc32)c1)N1CCN(c2ccccc2)CC1`, for which, under setting [1], the AC50 was 29.1 µM [falling, partial curve, poor fit].

As to `O=C(NOCc1ccccc1)c1ccc([N+](=O)[O-])cc1`, the AC50 under setting [1] is 29.1 µM [falling, single point].

Consider `O=C(N/N=C/c1ccccn1)c1ccc(N/N=C/c2ccccn2)cc1`, for which the AC50 under setting [1] was 6.31 µM [falling, partial curve, poor fit].

For the molecule `O=C1CSC(c2cccc([N+](=O)[O-])c2)N1C1CC2CCC1C2` (stereo not drawn), under setting [1], the AC50 is 11.2 µM [rising, partial curve].

As to `CC(NC(=O)CCl)c1ccc(Cl)c(Cl)c1` (stereo not drawn), the AC50 under setting [1] is 18.4 µM [falling, partial curve, poor fit].

As to `Cc1cc(Nc2ccccc2)nc(NCc2ccccc2)n1`, the AC50 is, setting by setting: under setting [1], 29.1 µM [falling, single point]; under setting [2], 20.6 µM [rising, partial curve, poor fit].

With `CC1CCCC(C)N1C(=O)/C=C/c1ccc(S(=O)(=O)N2CCOCC2)cc1` (stereo not drawn), under setting [1], the AC50 was 18.4 µM [rising, partial curve, poor fit].

Consider `CCN(CC)CC(C)CNC(=O)C1(O)c2ccccc2NC(=O)N1c1ccc(Cl)c(Cl)c1` (stereo not drawn), for which the AC50 under setting [1] is 12.6 µM [falling, partial curve, poor fit].

Take `Cc1ccc(C(=O)Nc2nnc(-c3ccncc3)s2)o1`: the AC50 under setting [1] was 3.66 µM [falling, full curve].

As to `CC(C)CC(=O)Nc1cccc(-c2nc3ccccc3[nH]2)c1`, the AC50 under setting [1] was 35.5 µM [falling, single point].

Consider `O=C(/C=C/c1ccccc1)N1CCN(CCN2C(=O)c3cccc4cccc(c34)C2=O)CC1`, for which, under setting [1], the AC50 is 0.731 µM [rising, full curve, poor fit].

On to `CCCCc1ccc(NC(=S)NCCc2ccc(F)cc2)cc1`, for which, under setting [1], the AC50 is 35.5 µM [falling, single point].

Take `Cc1ccccc1C(=O)NC1CCN(CC(=O)NCc2ccccc2)CC1`: the half-maximal activity concentration (AC50) under setting [1] was 1.12 µM [falling, full curve, poor fit].

`Cc1noc(NC(=O)c2cccc(C(F)(F)F)c2)c1Cl`: under setting [1], the AC50 is 14.1 µM [falling, single point].

With `O=C(NNC(=O)C1COc2ccccc2O1)c1cccc([N+](=O)[O-])c1` (stereo not drawn), the AC50 under setting [1] was 35.5 µM [falling, single point].

On to `N/C(=N\OC(=O)COc1ccc(Br)cc1Cl)c1ccccn1`, for which, under setting [1], the AC50 is 0.651 µM [rising, full curve, poor fit].

As to `Cn1c(N/N=C\c2cccc(O)c2)cc(=O)n(C)c1=O`, under setting [1], the half-maximal activity concentration (AC50) was 13 µM [falling, partial curve, poor fit].

As to `Cc1cc(C)n2nc(C(=O)N/N=C/c3ccc(O)cc3)nc2n1`, the half-maximal activity concentration (AC50) under setting [1] was 12.6 µM [falling, partial curve, poor fit].

Turning to `CC(Nc1ccc(N2CCOCC2)cc1)C(=O)N1c2ccccc2CC1C` (stereo not drawn), the AC50 under setting [1] was 5.62 µM [rising, single point].

For the molecule `CC(C)c1ccc(/C=C/C(=O)Nc2ccc(CN3CCOCC3)cc2)cc1`, under setting [1], the AC50 was 35.5 µM [falling, single point].

As to `COCc1cc(CN2CCCC(C(=O)Nc3ccc(-c4ccco4)cc3)C2)ccc1OC` (stereo not drawn), under setting [1], the AC50 is 12.6 µM [falling, single point].

Take `CCOC(=O)C1CCN(CC(O)COCc2ccc(Cl)cc2)CC1` (stereo not drawn): under setting [1], the AC50 was 8.91 µM [rising, partial curve, poor fit].

Regarding `CCOC(=O)CN(C(=O)CSc1nnc(C)n1-c1ccccc1)c1cccc([N+](=O)[O-])c1`, the AC50 reads like this: under setting [1], 25.9 µM [falling, single point]; under setting [2], 29.1 µM [rising, partial curve, poor fit].

As for `CC1=C/C(=N\NC(=S)NCc2ccccc2)CC1`, the AC50 is 35.5 µM [rising, single point] under setting [1] and 3.16 µM [falling, partial curve, poor fit] under setting [2].

On to `O=C1CN(C(=O)CNCc2ccccc2Cl)c2ccccc2N1`, for which the AC50 under setting [1] is 35.5 µM [falling, single point].

As for `CCOc1ccc(C(c2nnnn2C(C)(C)C)N2CCN(C(=O)c3ccco3)CC2)cc1` (stereo not drawn), the AC50 under setting [1] is 3.98 µM [rising, full curve, poor fit].

As to `COc1cc(/C=N/Nc2cccc3cccnc23)cc(OC)c1O`, the half-maximal activity concentration (AC50) under setting [1] is 6.31 µM [falling, partial curve].

As to `CC(C)(C)OC(=O)CN1c2cccc3cccc(c23)S1(=O)=O`, the AC50 under setting [1] is 11.2 µM [rising, partial curve, poor fit].

Turning to `C=C(C)c1cccc(C(C)(C)NC(=O)N(C)C2CCN(C)CC2)c1`, under setting [1], the AC50 was 10 µM [falling, partial curve, poor fit].

Take `CC(COc1ccc(/C=C/c2ccccc2)cc1)[N+](C)(C)C` (stereo not drawn): the AC50 under setting [1] is 23.1 µM [rising, partial curve] and the concentration at half-maximal activity (AC50) under setting [2] is 16.4 µM [falling, single point].

As to `COc1ccc(C2CC(c3cccs3)=NN2C(=O)CSc2nncn2C)cc1OC` (stereo not drawn), the AC50 under setting [1] is 31.6 µM [rising, single point].

Take `Cc1cc(CN2CCCCC2)oc1C(=O)O`: the AC50 under setting [1] was 29.1 µM [falling, single point].

On to `C=CCN=C1NN=C(c2cc(C)n(CCOC)c2C)CS1`, for which the AC50 under setting [1] is 20.6 µM [rising, partial curve, poor fit].

For the molecule `CC(C)N1CC(O)=C(c2ccccc2)C1=N`, under setting [1], the AC50 was 35.5 µM [rising, single point].

`COc1ccc(C(=O)Nc2ccc(N3CCCC3)cc2)cc1OC`: the AC50 under setting [1] was 1.41 µM [falling, full curve].

Take `CCn1c(-c2ccccc2)c(C(=O)CCl)c2ccccc21`: the half-maximal activity concentration (AC50) under setting [1] is 35.5 µM [falling, single point].

Turning to `COc1ccc(N2CC(C(=O)Nc3nc(-c4ccccc4)c(C(C)=O)s3)CC2=O)c(OC)c1` (stereo not drawn), the AC50 under setting [1] is 7.31 µM [falling, partial curve, poor fit].

`COc1cc(Cl)c(CC(=O)c2c[nH]c3ccccc23)cc1OC`: the AC50 under setting [1] is 8.91 µM [falling, partial curve].

Regarding `Cc1ccsc1C(=O)Nc1n[nH]c(C(F)(F)F)n1`, the AC50 under setting [1] is 8.91 µM [falling, partial curve].

For `Cc1nc2sc(C(c3cccs3)N3CCOCC3)c(O)n2n1` (stereo not drawn), under setting [1], the AC50 was 14.6 µM [rising, partial curve].

`CCc1cccc(NC(=O)CCc2nc(-c3cccs3)no2)c1`: under setting [1], the AC50 is 16.4 µM [rising, partial curve, poor fit].

For `CCOCC(=O)Nc1c(C(=O)Nc2ccccc2OC)oc2ccccc12`, under setting [1], the AC50 was 6.31 µM [rising, single point].

In the case of `CC(=O)Nc1ccc(C(=O)COC(=O)CCc2ccccc2)c(F)c1`, the AC50 under setting [1] is 29.1 µM [rising, single point].

As for `O=C(COC(=O)c1ccccc1NCCO)NCCC1=CCCCC1`, the AC50 under setting [1] is 5.17 µM [falling, full curve].

`O=C(CCN1C(=O)/C(=C\C=C\c2ccccc2)SC1=S)Nc1cccc(C(=O)O)c1`: the AC50 under setting [1] was 0.501 µM [falling, full curve].

With `Cc1ccsc1CN(C)C(=O)c1cc(S(=O)(=O)N2CCOCC2)ccc1N1CCCC1`, under setting [1], the AC50 was 29.1 µM [falling, single point].

As for `Cc1[nH]c2ccccc2c1/C=C(/C#N)C(=O)NC(C)C`, the AC50 under setting [1] is 5.01 µM [falling, partial curve, poor fit].

On to `CC(C)C[C@H](NC(=O)N1CCn2c1nc1ccccc12)C(=O)NCc1ccc2c(c1)OCO2`, for which the AC50 under setting [1] is 35.5 µM [falling, single point].

Turning to `CN1CCN(c2cc3c(c4c2[nH]c2ccccc24)C(=O)CC(C)(C)C3)CC1`, under setting [1], the half-maximal activity concentration (AC50) was 14.6 µM [falling, single point].

With `COc1ccccc1NC(=O)N1CCC(c2nc3cc(C)c(C)cc3[nH]2)CC1`, under setting [2], the concentration at half-maximal activity (AC50) is 5.8 µM [falling, full curve].

In the case of `CC(=O)c1cnc2c(-c3cccc(Br)c3)cnn2c1C`, the AC50 under setting [1] is 2.31 µM [rising, partial curve, poor fit].

As for `COc1cccc(CN2CCN(Cc3cc(OC)c(OC)c(OC)c3)CC2)c1OC`, under setting [1], the AC50 was 35.5 µM [falling, single point].

Regarding `COc1ccc(C2NC(=O)c3ccccc3O2)cc1` (stereo not drawn), the AC50 under setting [1] was 15.8 µM [rising, single point].

Regarding `Cc1ccc(C)c(N2CCN(S(=O)(=O)c3cc4c(cc3C)NC(=O)CO4)CC2)c1`, under setting [1], the AC50 is 12.6 µM [rising, single point].

As for `CCN(C(=O)CSc1cc(-c2ccccc2)c2ccc(OC)cc2n1)C1CCS(=O)(=O)C1` (stereo not drawn), the AC50 under setting [1] was 20.6 µM [falling, single point].

In the case of `Cc1ccc(/C=N/N(C)C2=NS(=O)(=O)c3ccccc32)cc1`, under setting [1], the half-maximal activity concentration (AC50) is 3.98 µM [rising, single point].

Turning to `O=C(N/N=C\c1ccc(F)cc1)c1ccc(F)cc1`, under setting [1], the AC50 is 10 µM [falling, partial curve, poor fit].

As for `CCc1c(C)nc2cc(-c3ccc(OC)c(OC)c3)nn2c1N1CCCC1`, the half-maximal activity concentration (AC50) under setting [1] was 22.4 µM [falling, single point].
